Percent effect of library compounds

Source: ChEMBL document CHEMBL3988442, “University of Dundee, Small-Polar-MMV Screening Library” (2021).

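Whole-cell growth test on Mycobacterium tuberculosis, read after 4 days in a medium based on cholesterol and the lipid DPPC; the read-out is not stated. Concentration: 500 µM. Direction is inferred from retests: higher values go with more growth inhibition. Of about 18,000 compounds tested this way, about 900 (5%) reached 50% or more in at least one test.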

The filed quantity is “Percent Effect” (%).
The controls that fix the scale are not given in the record; negative values are as filed.
This is an unselected part of the compounds tested.

Compound	Percent Effect
COc1ccc(CC(N)=O)cc1OC	-16.87
CN(Cc1ccco1)C(=O)Nc1ccc(N(C)C)nc1	-30.61
COCCN1CCC(NC(=O)Nc2ccccc2)C1 (stereo not shown)	-4.043
N[C@@H]1CCO[C@H]1c1ccnn1-c1ccccc1	1.192
Cc1cc(S(=O)(=O)N(C)C)ccc1OCC(N)=O	0.9831
CN(C)CCOC1CCNCC1	-10.07
Cc1ccc2oc(N3CCNCC3)nc2c1	37.53
CC(=O)NCC1CCN(Cc2ccccc2)C1 (stereo not shown)	14.47
Cc1c(C(=O)NCC(N)=O)oc2ccc(Cl)cc12	30.66
Cn1nccc1C(=O)N[C@@H]1COCC[C@@H]1OCC(N)=O	7.812
CCS(=O)(=O)CC(=O)NCCc1cccs1	9.206
Cc1cc(C)n(CC(=O)N(C)C2CCCC2)n1	6.384
CN(CC(=O)Nc1cccc(Cl)c1)C(=O)CC#N	7.63
OC1CCN(CC(O)COc2ccccc2)CC1 (stereo not shown)	-2.411
COCCN(C)CCNC(=O)c1ccc(Cl)cc1	37.06
O=c1[nH]c(-c2ccccn2)nc2c1CCC2	-1.312
NC(=O)Cn1cc(N)cn1	17.49
COCCN(C(=O)NC1CCS(=O)(=O)C1)C1CC1 (stereo not shown)	11.15
O=C(C1CC=CC1)N(CCCO)Cc1ccccn1	12.9
CC1COc2ccccc2N1C(=O)c1cnsn1 (stereo not shown)	-0.3761
CC1COCCN1CCNS(C)(=O)=O (stereo not shown)	-13.83
CCCNS(=O)(=O)c1ccc(OCC)nc1	31.25
CNCc1cc(C#N)ccc1F	24.94
CCc1nccn1CCNC(=O)Cn1nc(C)cc1N	-15.45
Cc1nc(-c2ncccn2)sc1C(=O)N1CCSCC1	5.635
Cc1nn(C)c(C)c1CC(N)=O	0.6085
N#CC1(CS(=O)(=O)N2CCN(CCO)CC2)CCC1	-7.937
CNCC(=O)NCCc1c(OC)ccc2ccccc12	39.83
COCc1nc(CN2C(=O)CCc3ccccc32)no1	-17.3
COc1ccc(Cl)cc1NCC(=O)N1CCSCC1	0.2071
Cc1nc(O)cc(CNC(=O)c2ncc(F)cc2F)n1	10.3
Cc1ccc(C2CC(=O)NC(SCC(N)=O)=C2C#N)o1 (stereo not shown)	29
Clc1cccnc1N1CCC(Nc2cccnc2)CC1	-9.527
CN1CCC(N(C)C(=O)Cc2ccc(F)cc2)CC1	-7.842
CCn1cc(NC(=O)NC2CCN(C3CC3)CC2)cn1	2.691
CCCC(O)CNS(=O)(=O)c1cc(F)cc(F)c1 (stereo not shown)	20.25
CCCS(=O)(=O)NCC(C)N1CCOCC1 (stereo not shown)	7.6
CCC(CC)(CO)NCCn1cc(Br)cn1	5.595
CCC(C(=O)NCc1ccc(F)c(F)c1)n1cccn1 (stereo not shown)	32.24
Clc1cnccc1CN1CCC2(CCOC2)C1 (stereo not shown)	-3.616
OCC1(O)CCCN(Cc2ccc(F)c(F)c2)CC1 (stereo not shown)	-8.923
Cn1cc([C@@H]2[C@@H](CN)CC(=O)N2C(C)(C)C)cn1	-6.468
CCOC(=O)N1CCC(C(C)N)CC1 (stereo not shown)	1.818
CC(N)CN1CCOC1=O (stereo not shown)	-7.004
CC(C)(C)OC(=O)NCCC1CCNCC1	1.864
CN(C)S(=O)(=O)CCCN1CCC2(CCCNC2=O)C1 (stereo not shown)	-39.69
CCC1(CO)CCCN(CCCC(N)=O)C1 (stereo not shown)	-8.006
COc1ccccc1CNc1ccc(S(N)(=O)=O)cc1	7.391
CC(C)(C)c1noc(CO)n1	-0.5599
O=C(CCc1cc(Cl)no1)N1CC[C@H]2CNC[C@H]21	2.242
Cc1cc(C)n(CC(=O)NCC2(C)CCOCC2)n1	-3.431
COc1cccc(CCC(=O)NCCCN(C)C)c1	-9.189
Cc1ccc(C2CN(CCNC(C)C)CCO2)o1 (stereo not shown)	-11.92
COc1cccc(C(=O)N2C[C@H](C3CC3)[C@@H](N)C2)c1C	19.18
CSCc1noc(CN2CCC(=O)NCC2C)n1 (stereo not shown)	6.841
CCS(=O)(=O)N(C)CC(=O)N1CC2(CCC2)CC1C (stereo not shown)	-6.129
O=C(NC1CC(=O)N(Cc2cccc(F)c2)C1)C1CC1 (stereo not shown)	18.23
CN(C)C(=O)CN1C=Nc2ccccc2S1(=O)=O	-4.69
CCCNC(=O)COC(=O)c1cc(OC)cc(OC)c1	-35.58
OC1CCN(Cc2cc(Cl)c3c(c2)OCCO3)CC1	12.26
C[C@@H]1CN(c2nc(CO)cs2)C[C@]1(C)O	-28.62
O=C(NCC1CCCO1)N1CCC2(C1)OCCO2 (stereo not shown)	-19.79
Cc1cnc(CCNC(=O)N(CCO)C2CC2)s1	-11.77
CC1CN(C(=O)CCCNC(=O)c2ccco2)CCO1 (stereo not shown)	-4.679
CNC(=O)c1cc(NC)ccn1	-0.8976
Cc1cccc(NC(=O)CC2CCS(=O)(=O)C2)c1C (stereo not shown)	28.57
CCC(=O)NC1CNC1	-1.034

Some entries from above, unchanged:

Compound,Percent Effect
COc1cccc(C(=O)N2C[C@H](C3CC3)[C@@H](N)C2)c1C,19.18
COCCN1CCC(NC(=O)Nc2ccccc2)C1 (stereo not shown),-4.043
Cc1cc(C)n(CC(=O)NCC2(C)CCOCC2)n1,-3.431
CCS(=O)(=O)CC(=O)NCCc1cccs1,9.206
OCC1(O)CCCN(Cc2ccc(F)c(F)c2)CC1 (stereo not shown),-8.923
CC(C)(C)OC(=O)NCCC1CCNCC1,1.864